{"source": "patent US20250152609A1", "about": "“SALICYLIC ACID COMPOSITIONS AND USES THEREOF” (priority 2022, published 2025)", "system": "E. coli CFT073 adhesion to human urinary bladder cells (T24)", "test": "In vitro adhesion test (ADH): adhesion of E. coli to human bladder cells, cfu plate count", "type": "cell-based", "details": "1 h, adhesion <50% of control = significant, FIG. 1C", "method": "In Vitro Adhesion Test (ADH)—Host-Pathogen-Interaction Assessed by In Vitro Adhesion to Human Cells Adhesion of E. coli to bladder epithelium was established in cell culture. Upon exposure to E. coli an epithelial cell detachment was observed, in a manner similar to in vivo exfoliation. The test was miniaturized by growing the epithelium cell cultures in 96-well plates instead of the classical 24-well plates.\nThe test samples were added prior to the start of the adhesion process. Bladder cells grown to confluence in 96-well plates were exposed to E. coli (50 μL of E. coli at 1.4*10^7 cfu/mL in each well) for 1 h. After 1 h, non-adhered E. coli were rinsed off and the adhered E. coli were detached and enumerated by plate counting colony-forming-units (cfu). Enumeration was automatized using a spiral plate count apparatus which further improved the test-variability.\nThe E. coli adhesion test was run in absence (given as 100% adhesion) and presence of different concentrations of the agents. […] Human cytotoxicity measurements of the mitochondrial activity (MTT) excluded side-effects of the agents. […]\nAnti-adhesive effect is measured in vitro (standard method) using centrifuged extracts (Fu1) of Filipendula ulmaria (F) and Epilobium parviflorum (E) using human epithelial bladder cells (T24 ATCC® HTB-4™ Homo sapiens urinary bladder cell lines).", "note": "At least one structure is not confirmed: it was looked up by name or label, or the drawing left a doubt."}
{"smiles": "O=C(O)CNC(=O)c1ccccc1O", "note": "[Salicyluric acid, salicyluric acid]", "values": [{"measurement": "reduction of adhesion of E. coli CFT073 on urinary bladder cells", "setting": "2.5 mg/mL", "value": "significant reduction"}, {"measurement": "reduction of adhesion of E. coli CFT073 on urinary bladder cells", "setting": "5 mg/mL", "value": "significant reduction"}]}
